Test [1] deals with T1, MKK4-V1 (full length MKK4 fused to the V1 fragment of Venus YFP) (UniProt P45985).
T1 sequence: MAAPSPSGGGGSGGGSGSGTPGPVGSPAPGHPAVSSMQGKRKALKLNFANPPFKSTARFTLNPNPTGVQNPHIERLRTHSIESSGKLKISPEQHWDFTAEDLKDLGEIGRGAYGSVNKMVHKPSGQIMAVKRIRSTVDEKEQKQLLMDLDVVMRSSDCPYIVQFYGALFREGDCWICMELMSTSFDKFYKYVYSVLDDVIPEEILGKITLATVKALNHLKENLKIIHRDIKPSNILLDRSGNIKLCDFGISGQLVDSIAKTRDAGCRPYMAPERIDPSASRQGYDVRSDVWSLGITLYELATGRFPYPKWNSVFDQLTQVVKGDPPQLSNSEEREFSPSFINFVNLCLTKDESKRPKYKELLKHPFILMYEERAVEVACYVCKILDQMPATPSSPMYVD
Kind of test: split reporter; competitive PCA in HeLa cells: MKK-V1 and TRIB-V2 co-transfected with an increasing dose of an untagged competitor plasmid (ERK, p38 or TRIB); mean fluorescence by flow cytometry 24 h after transfection; doses are plasmid amounts relative to TRIB-V2.

The chains behind the UniProt entries cited, without tags or fusion partners.
UniProt O14733: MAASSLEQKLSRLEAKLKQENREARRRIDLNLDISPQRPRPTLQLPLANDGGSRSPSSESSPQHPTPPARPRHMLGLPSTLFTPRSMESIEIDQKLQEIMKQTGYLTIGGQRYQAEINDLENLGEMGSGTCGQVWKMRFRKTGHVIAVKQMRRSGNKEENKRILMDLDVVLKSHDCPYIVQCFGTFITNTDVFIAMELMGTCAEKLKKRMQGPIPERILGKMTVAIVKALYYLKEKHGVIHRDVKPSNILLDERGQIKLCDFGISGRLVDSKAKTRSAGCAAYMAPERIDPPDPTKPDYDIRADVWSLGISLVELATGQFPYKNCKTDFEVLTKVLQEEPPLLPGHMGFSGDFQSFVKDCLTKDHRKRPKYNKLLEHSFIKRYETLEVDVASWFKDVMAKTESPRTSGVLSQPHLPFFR

Test [2] addresses T2, MKK6-V1 (full length MKK6 fused to the V1 fragment of Venus YFP) (UniProt P52564).
T2 sequence: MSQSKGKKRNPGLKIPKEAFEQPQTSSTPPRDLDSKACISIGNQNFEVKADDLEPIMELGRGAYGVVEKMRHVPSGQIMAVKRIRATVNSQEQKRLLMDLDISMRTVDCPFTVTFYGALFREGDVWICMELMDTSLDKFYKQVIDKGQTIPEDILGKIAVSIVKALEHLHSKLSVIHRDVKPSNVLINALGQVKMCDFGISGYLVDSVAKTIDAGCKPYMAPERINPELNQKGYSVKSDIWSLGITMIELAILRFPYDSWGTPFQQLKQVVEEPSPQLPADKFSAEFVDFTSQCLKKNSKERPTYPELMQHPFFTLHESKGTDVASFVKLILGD
The test can be described thus: split reporter; Venus YFP protein-fragment complementation assay (PCA): MKK-V1 and TRIB-V2 constructs (full length or truncated) co-transfected into HeLa cells, fluorescent complexes seen by fluorescence microscopy.

For test [3], the target named is MKK7-V1 (full length MKK7 fused to the V1 fragment of Venus YFP) (UniProt O14733). The description is as above.
Test [4] deals with T1, MKK4-V1 (full length MKK4 fused to the V1 fragment of Venus YFP). Described as above.
Test [5] concerns the target MKK7-V1 (full length MKK7 fused to the V1 fragment of Venus YFP) (UniProt O14733). The test can be described thus: split reporter; Venus YFP PCA in co-transfected HeLa cells, signal quantified by flow cytometry 24 h after transfection; serum-starved cells with or without IL-1 (0.1 nM, 60 min). (In general: A flow cytometer gives signals particle by particle.)
Test [6] has as its target RelA-V1 (NF-κB/RelA fused to the V1 fragment of Venus YFP), Q04206. The description is as above. Particulars: remark: other sources report otherwise.

Results are given in words; binding and its absence hold for the method and conditions named. Binding seen in cells or lysates may run through a third protein. Some entries that bind do so weakly or less than the wild type. Sequences can lack the tags named with a protein.

B1: TRIB1-V2 (full length tribbles-1 fused to the V2 fragment of Venus YFP) (protein, UniProt Q96RU8 1-372)
chain: MRVGPVRSAMSGASQPRGPALLFPATRGVPAKRLLDADDAAAVAAKCPRLSECSSPPDYLSPPGSPCSPQPPPAAPGAGGGSGSAPGPSRIADYLLLPLAEREHVSRALCIHTGRELRCKVFPIKHYQDKIRPYIQLPSHSNITGIVEVILGETKAYVFFEKDFGDMHSYVRSRKRLREEEAARLFKQIVSAVAHCHQSAIVLGDLKLRKFVFSTEERTQLRLESLEDTHIMKGEDDALSDKHGCPAYVSPEILNTTGTYSGKAADVWSLGVMLYTLLVGRYPFHDSDPSALFSKIRRGQFCIPEHISPKARCLIRSLLRREPSERLTAPEILLHPWFESVLEPGYIDSEIGTSDQIVPEYQEDSDISSFFC
Consider B1, for which the binding result in test [1], in test [2], in test [3], in test [4] and in test [5] was “binds” each time.

B2: untagged TRIB-1 (protein, UniProt Q96RU8 1-372)
chain: MRVGPVRSAMSGASQPRGPALLFPATRGVPAKRLLDADDAAAVAAKCPRLSECSSPPDYLSPPGSPCSPQPPPAAPGAGGGSGSAPGPSRIADYLLLPLAEREHVSRALCIHTGRELRCKVFPIKHYQDKIRPYIQLPSHSNITGIVEVILGETKAYVFFEKDFGDMHSYVRSRKRLREEEAARLFKQIVSAVAHCHQSAIVLGDLKLRKFVFSTEERTQLRLESLEDTHIMKGEDDALSDKHGCPAYVSPEILNTTGTYSGKAADVWSLGVMLYTLLVGRYPFHDSDPSALFSKIRRGQFCIPEHISPKARCLIRSLLRREPSERLTAPEILLHPWFESVLEPGYIDSEIGTSDQIVPEYQEDSDISSFFC
Consider B2, for which the binding result in test [1] is “binds”.

B3: TRIB2-V2 (full length tribbles-2 fused to the V2 fragment of Venus YFP) (protein, UniProt Q92519 1-343)
chain: MNIHRSTPITIARYGRSRNKTQDFEELSSIRSAEPSQSFSPNLGSPSPPETPNLSHCVSCIGKYLLLEPLEGDHVFRAVHLHSGEELVCKVFDISCYQESLAPCFCLSAHSNINQITEIILGETKAYVFFERSYGDMHSFVRTCKKLREEEAARLFYQIASAVAHCHDGGLVLRDLKLRKFIFKDEERTRVKLESLEDAYILRGDDDSLSDKHGCPAYVSPEILNTSGSYSGKAADVWSLGVMLYTMLVGRYPFHDIEPSSLFSKIRRGQFNIPETLSPKAKCLIRSILRREPSERLTSQEILDHPWFSTDFSVSNSAYGAKEVSDQLVPDVNMEENLDPFFN
Regarding B3, the binding result in test [1], in test [2], in test [3], in test [4] and in test [5] was “binds” each time.

B4: untagged TRIB-2 (protein, UniProt Q92519 1-343)
chain: MNIHRSTPITIARYGRSRNKTQDFEELSSIRSAEPSQSFSPNLGSPSPPETPNLSHCVSCIGKYLLLEPLEGDHVFRAVHLHSGEELVCKVFDISCYQESLAPCFCLSAHSNINQITEIILGETKAYVFFERSYGDMHSFVRTCKKLREEEAARLFYQIASAVAHCHDGGLVLRDLKLRKFIFKDEERTRVKLESLEDAYILRGDDDSLSDKHGCPAYVSPEILNTSGSYSGKAADVWSLGVMLYTMLVGRYPFHDIEPSSLFSKIRRGQFNIPETLSPKAKCLIRSILRREPSERLTSQEILDHPWFSTDFSVSNSAYGAKEVSDQLVPDVNMEENLDPFFN
As to B4, the binding result in test [1] is listed as “binds”.

B5: IκBα-V2 (IκBα fused to the V2 fragment of Venus YFP), P25963 1-317 (protein)
chain: MFQAAERPQEWAMEGPRDGLKKERLLDDRHDSGLDSMKDEEYEQMVKELQEIRLEPQEVPRGSEPWKQQLTEDGDSFLHLAIIHEEKALTMEVIRQVKGDLAFLNFQNNLQQTPLHLAVITNQPEIAEALLGAGCDPELRDFRGNTPLHLACEQGCLASVGVLTQSCTTPHLHSILKATNYNGHTCLHLASIHGYLGIVELLVSLGADVNAQEPCNGRTALHLAVDLQNPDLVSLLLKCGADVNRVTYQGYSPYQLTWGRPSTRIQQQLGQLTLENLQMLPESEDEESYDTESEFTEFTEDELPYDDCVFGGQRLTL
On to B5, for which, in test [6], the binding entry is reported as “binds”.

The record behind these values is article PMC5013389.
